The results in this text go back to paper PMC7857730.

No constants are given. Whether binding was seen depends on the method and setting. In cells and extracts the contact can be indirect. A yes stands for co-enrichment or nearness to the bait. Other partners may have been found. Sequences can lack the tags named with a protein.

In the assay the target is T1, Iml1-myc (S. pombe) (UniProt O74788).
T1 sequence: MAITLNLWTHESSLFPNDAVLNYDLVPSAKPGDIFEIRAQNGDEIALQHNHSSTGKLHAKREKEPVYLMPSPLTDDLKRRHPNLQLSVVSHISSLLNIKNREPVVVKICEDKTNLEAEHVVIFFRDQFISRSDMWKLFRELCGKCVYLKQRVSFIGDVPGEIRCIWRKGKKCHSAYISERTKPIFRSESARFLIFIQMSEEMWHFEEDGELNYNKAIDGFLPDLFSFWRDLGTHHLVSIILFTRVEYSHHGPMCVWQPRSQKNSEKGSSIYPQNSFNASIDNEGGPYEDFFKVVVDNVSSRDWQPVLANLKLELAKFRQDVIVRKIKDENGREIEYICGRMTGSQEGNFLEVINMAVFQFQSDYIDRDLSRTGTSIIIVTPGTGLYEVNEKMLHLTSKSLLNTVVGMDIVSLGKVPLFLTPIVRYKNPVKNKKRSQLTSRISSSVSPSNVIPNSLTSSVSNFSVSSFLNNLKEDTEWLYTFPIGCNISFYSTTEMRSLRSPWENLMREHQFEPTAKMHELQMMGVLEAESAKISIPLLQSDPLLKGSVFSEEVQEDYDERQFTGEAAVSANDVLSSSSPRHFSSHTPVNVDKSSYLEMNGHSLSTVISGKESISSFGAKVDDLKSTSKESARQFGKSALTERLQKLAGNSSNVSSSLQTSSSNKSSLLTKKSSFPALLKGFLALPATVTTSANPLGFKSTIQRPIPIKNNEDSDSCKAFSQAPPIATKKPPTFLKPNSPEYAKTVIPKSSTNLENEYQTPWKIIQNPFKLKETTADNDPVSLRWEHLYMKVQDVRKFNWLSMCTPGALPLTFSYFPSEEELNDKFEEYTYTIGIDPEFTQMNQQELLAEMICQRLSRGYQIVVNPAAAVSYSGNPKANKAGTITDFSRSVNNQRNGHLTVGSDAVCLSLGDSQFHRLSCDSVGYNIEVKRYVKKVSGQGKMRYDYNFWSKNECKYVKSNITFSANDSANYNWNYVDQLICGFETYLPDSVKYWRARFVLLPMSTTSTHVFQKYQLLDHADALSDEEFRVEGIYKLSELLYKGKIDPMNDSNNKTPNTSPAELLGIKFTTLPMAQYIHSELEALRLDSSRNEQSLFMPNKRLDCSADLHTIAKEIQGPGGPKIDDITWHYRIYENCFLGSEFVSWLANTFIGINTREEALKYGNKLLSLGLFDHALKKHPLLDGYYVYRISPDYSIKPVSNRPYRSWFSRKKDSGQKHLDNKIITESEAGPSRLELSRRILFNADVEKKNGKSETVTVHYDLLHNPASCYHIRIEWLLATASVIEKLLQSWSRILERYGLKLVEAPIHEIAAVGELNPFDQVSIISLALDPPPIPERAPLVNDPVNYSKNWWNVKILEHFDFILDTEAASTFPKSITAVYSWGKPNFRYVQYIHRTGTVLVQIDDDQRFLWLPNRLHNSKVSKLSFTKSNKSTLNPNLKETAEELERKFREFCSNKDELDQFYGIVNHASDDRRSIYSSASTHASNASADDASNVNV
In words: affinity purification with mass spectrometry.

In the case of FLAG-Npr2 (S. pombe), the binding result is “binds”.

In the case of FLAG-Npr3 (S. pombe), the binding result is “binds”.
